Here are results for two sequences from patent US20250003974.

Chains of the proteins cited; added tags and fusions are not shown. Lines headed by an entry give the natural chain unless they say otherwise; changes in a name come on top.
UniProt O75417: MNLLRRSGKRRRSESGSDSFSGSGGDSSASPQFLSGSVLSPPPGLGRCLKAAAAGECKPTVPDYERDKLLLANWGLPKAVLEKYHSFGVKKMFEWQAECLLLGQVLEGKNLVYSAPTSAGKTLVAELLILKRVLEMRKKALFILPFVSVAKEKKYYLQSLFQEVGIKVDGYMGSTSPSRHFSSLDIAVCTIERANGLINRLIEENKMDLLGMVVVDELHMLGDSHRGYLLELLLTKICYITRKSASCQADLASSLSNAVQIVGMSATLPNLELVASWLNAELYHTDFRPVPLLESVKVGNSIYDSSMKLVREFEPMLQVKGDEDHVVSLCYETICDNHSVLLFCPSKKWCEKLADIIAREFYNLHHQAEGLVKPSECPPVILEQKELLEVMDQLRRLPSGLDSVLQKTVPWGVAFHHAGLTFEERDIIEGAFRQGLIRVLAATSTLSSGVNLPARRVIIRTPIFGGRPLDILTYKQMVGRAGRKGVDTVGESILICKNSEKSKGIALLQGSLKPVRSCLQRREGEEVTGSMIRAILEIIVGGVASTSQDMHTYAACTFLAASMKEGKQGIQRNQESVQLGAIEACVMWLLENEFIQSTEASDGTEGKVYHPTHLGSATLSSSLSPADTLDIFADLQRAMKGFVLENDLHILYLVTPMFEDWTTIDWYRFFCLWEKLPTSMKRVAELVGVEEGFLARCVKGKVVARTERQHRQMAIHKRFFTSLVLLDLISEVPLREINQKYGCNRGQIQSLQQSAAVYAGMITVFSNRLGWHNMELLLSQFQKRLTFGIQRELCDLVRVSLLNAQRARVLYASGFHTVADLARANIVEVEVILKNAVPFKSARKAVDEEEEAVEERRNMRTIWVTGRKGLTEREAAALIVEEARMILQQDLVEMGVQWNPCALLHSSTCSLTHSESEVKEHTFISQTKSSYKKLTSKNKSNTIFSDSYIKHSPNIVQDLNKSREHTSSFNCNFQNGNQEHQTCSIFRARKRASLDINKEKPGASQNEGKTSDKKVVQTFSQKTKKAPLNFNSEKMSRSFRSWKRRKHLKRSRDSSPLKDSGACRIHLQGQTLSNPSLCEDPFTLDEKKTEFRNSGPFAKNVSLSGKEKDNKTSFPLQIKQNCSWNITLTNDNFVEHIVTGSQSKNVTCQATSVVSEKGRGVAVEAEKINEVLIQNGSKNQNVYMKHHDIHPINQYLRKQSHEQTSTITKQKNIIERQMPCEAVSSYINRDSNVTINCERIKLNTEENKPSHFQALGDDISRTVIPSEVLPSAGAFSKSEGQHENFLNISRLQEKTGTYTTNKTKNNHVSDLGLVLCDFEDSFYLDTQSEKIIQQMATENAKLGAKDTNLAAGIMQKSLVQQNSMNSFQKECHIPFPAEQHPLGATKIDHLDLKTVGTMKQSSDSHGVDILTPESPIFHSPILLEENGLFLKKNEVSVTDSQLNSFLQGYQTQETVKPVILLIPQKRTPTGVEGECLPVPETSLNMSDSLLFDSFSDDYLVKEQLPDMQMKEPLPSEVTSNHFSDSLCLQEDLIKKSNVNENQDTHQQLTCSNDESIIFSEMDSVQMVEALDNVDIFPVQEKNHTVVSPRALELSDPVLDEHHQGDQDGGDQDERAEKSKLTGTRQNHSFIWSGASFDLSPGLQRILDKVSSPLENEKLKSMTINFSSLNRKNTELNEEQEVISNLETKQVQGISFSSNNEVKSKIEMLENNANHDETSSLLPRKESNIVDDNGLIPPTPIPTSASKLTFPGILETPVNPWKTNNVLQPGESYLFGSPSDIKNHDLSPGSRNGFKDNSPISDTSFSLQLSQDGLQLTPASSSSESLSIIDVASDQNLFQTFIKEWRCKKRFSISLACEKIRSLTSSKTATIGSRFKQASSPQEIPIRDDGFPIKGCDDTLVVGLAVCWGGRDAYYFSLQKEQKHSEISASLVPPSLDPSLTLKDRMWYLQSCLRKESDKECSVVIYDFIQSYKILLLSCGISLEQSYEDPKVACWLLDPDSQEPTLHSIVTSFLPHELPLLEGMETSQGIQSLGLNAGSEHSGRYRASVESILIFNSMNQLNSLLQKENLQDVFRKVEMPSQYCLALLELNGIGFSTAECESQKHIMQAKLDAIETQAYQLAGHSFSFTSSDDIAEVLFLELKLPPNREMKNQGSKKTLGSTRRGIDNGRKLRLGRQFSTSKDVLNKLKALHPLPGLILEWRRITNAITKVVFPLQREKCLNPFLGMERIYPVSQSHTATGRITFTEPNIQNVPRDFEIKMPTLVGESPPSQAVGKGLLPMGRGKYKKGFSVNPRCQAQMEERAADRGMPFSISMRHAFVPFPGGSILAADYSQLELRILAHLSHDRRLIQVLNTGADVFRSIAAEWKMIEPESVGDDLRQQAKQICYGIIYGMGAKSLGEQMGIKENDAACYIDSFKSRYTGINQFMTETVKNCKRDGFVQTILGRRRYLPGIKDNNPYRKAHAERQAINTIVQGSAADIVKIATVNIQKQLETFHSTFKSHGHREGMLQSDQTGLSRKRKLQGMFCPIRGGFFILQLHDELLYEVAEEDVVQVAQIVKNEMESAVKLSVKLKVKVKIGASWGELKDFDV

In this data set the target is DNA polymerase theta (POLQ)-NanoLuc fusion (Homo sapiens) (UniProt O75417). Nature of the data set: binding assay. As to conditions: meaning not stated in the examples, probably PS, protein in cells, folded or branched DNA.

Results from cells or extracts need not show a direct contact.

In the case of “TAGCGAAGGATGTGAACCTAATCCCTGCTCCCGCGGCCGATCTGCCGGCCGCGGGAGCA [Lanky (Lanky 1/Lanky 2) oligonucleotide]”, the binding result (linkages marked * in the printed sequence (T*A*G*CGAAGGATGTGAACCTAATCCCTGCTCCCGCGGCC*G*A*T*C*T*G*C*C*G*GCCGCGGGA*G*C*A), indirect: electroporated DNA potentiates NanoBRET of pol-domain tracer 9686 in live HEK293 cells (coordinative binding)) was “binds”. “CCTAATCCCTGCTCCCGCGGCCGATCTGCCGGCCGCGGGAGCA [Stubby oligonucleotide]”: the binding result (linkages marked * in the printed sequence (C*C*T*AATCCCTGCTCCCGCGGCC*G*A*T*C*T*G*C*C*G*GCCGCGGGA*G*C*A), indirect: delivered DNA potentiates NanoBRET of tracers 9686/9625 in HEK293 cells, behaves similarly to Lanky, printed sequence differs from SEQ 4 by one base, variant of Lanky (Lanky 1/Lanky 2) oligonucleotide) is “binds”.
